According to paper PMC10758104:
These are yes or no findings as the source states them, for the method shown. In cells and extracts the contact can be indirect. Some entries that bind do so weakly or less than the wild type. Where a sequence is shown, tags or fusion partners need not be part of it.

T1: SLC40A1 (Flag-tagged, overexpressed in cardiomyocytes of Slc40a1 transgenic mice) (UniProt Q9JHI9)
T1 sequence: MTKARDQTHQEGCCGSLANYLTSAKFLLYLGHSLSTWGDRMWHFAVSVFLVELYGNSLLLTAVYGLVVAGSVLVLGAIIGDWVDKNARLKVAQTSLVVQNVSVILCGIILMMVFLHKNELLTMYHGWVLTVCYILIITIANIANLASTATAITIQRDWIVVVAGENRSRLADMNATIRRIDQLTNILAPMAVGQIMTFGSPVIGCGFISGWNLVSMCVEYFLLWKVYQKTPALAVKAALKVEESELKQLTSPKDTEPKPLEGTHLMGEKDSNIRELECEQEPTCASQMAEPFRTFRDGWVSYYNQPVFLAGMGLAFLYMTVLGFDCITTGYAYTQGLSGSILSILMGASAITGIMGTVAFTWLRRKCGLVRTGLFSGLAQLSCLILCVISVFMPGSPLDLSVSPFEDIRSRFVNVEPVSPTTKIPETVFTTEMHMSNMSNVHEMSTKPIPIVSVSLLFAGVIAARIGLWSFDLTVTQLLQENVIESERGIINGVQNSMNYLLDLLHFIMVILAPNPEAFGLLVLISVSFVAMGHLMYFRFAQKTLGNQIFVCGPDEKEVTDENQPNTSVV

T2: SLC40A1-ECFP (UniProt Q9JHI9)
T2 sequence: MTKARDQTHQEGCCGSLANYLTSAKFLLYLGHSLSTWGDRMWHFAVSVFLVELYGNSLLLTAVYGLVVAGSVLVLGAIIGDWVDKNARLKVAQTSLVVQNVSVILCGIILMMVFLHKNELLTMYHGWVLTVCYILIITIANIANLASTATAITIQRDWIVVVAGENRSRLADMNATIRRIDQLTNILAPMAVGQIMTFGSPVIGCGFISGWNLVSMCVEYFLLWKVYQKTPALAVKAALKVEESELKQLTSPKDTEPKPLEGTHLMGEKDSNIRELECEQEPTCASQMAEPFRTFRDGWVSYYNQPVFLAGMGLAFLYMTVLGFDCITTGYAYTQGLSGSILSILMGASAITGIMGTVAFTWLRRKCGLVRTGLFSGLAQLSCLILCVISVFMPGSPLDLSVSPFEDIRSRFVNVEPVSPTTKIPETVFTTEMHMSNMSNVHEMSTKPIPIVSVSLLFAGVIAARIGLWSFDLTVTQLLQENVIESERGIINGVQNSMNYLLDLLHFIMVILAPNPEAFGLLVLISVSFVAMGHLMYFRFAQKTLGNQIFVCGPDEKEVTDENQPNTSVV


Legend:
[1] = target: T1, SLC40A1 (Flag-tagged, overexpressed in cardiomyocytes of Slc40a1 transgenic mice); assay: co-IP; fresh mouse hearts homogenized and lysed; immunoprecipitation with Flag or Steap4 antibody overnight at 4 °C, protein A/G magnetic beads; immunoblot with Flag or Steap4 antibody
SLC40A1-ECFP = target: T2, SLC40A1-ECFP; assay: FRET or BRET; SLC40A1-ECFP (donor) and Steap4-EYFP (acceptor) co-transfected in 293T cells; confocal microscopy, normalized FRET

| binding [1] | binding (SLC40A1-ECFP) | Binder |
| --- | --- | --- |
| binds |  | Steap4 (six transmembrane epithelial antigen of prostate 4) (protein, UniProt Q923B6 1-470) MEKAHADEFPLTTDSSEKQGVVCIFGTGDFGKSLGLKMLQCGYSIVFGSRNPQVSSLLPRGAEVLSYSEAASKSDIIILAMHREHYDSLTELVDYLKGKVLVDVSNNRKINQYPESNAEYLAQLEPGAHVVKAFNTISAWALQSGTLDASRQVFVCGNDSKAKQRVMDIARTLGLTPLDQGSLMAASEIENYPLQLFPMWRFPFYLSSVLCVFFFVYCAIREVIYPYVNGKTDATYRLAISIPNRVFPITALILLALVYLPGILAAILQLYRGTKYRRFPNWLDHWMLCRKQLGLVALGFAFLHVIYTLVIPIRYYVRWRLRNATITQALTNKDSPFITSYAWINDSYLALGILGFFLFLLLGITSLPSVSNMVNWREFRFVQSKLGYLTLVLCTAHTLVYGGKRFLSPSILRWSLPSAYILALVIPCAVLVLKCILIMPCIDKTLTRIRQGWERNSKYTQSALNGKSDI |
|  | binds | Steap4-EYFP (protein, UniProt Q923B6 1-470) MEKAHADEFPLTTDSSEKQGVVCIFGTGDFGKSLGLKMLQCGYSIVFGSRNPQVSSLLPRGAEVLSYSEAASKSDIIILAMHREHYDSLTELVDYLKGKVLVDVSNNRKINQYPESNAEYLAQLEPGAHVVKAFNTISAWALQSGTLDASRQVFVCGNDSKAKQRVMDIARTLGLTPLDQGSLMAASEIENYPLQLFPMWRFPFYLSSVLCVFFFVYCAIREVIYPYVNGKTDATYRLAISIPNRVFPITALILLALVYLPGILAAILQLYRGTKYRRFPNWLDHWMLCRKQLGLVALGFAFLHVIYTLVIPIRYYVRWRLRNATITQALTNKDSPFITSYAWINDSYLALGILGFFLFLLLGITSLPSVSNMVNWREFRFVQSKLGYLTLVLCTAHTLVYGGKRFLSPSILRWSLPSAYILALVIPCAVLVLKCILIMPCIDKTLTRIRQGWERNSKYTQSALNGKSDI |
